Measured values as given in the supplement of paper PMC10470496.
Counter-ions that a name gives are not always drawn. The list shows a part of the results. Many values rest on one well or one pass, so single values are uncertain.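 The strains were three CDC resistance-bank clinical C. auris isolates from clades III, IV and I, cultured in RPMI-1640 at 35°C. Growth was background-corrected OD600 versus vehicle-only wells on the same plate. A hit needed >50% inhibition in two or more strains plus a plate-corrected B-score exceeding 0.1.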

Columns and labels:
Assay in all cases: growth relative to vehicle control (OD600 ratio) (fraction); higher = less inhibition
Conditions in all cases: 24 h
C. auris AR-384 = tested on: C. auris AR-384
C. auris AR-386 = tested on: C. auris AR-386
C. auris AR-387 = tested on: C. auris AR-387

SMILES | growth (C. auris AR-384; 1 µM) | growth (C. auris AR-384; 10 µM) | growth (C. auris AR-386; 1 µM) | growth (C. auris AR-386; 10 µM) | growth (C. auris AR-387; 1 µM) | growth (C. auris AR-387; 10 µM)
CC(=O)SCC(Cc1ccccc1)C(=O)NCC(=O)OCc1ccccc1 (stereo not given) [Racecadotril] | 1.05 | 1.08 | 1.06 | 0.73 | 0.85 | 0.64
CC(=O)O[C@@]12CO[C@@H]1C[C@H](O)[C@@]1(C)C(=O)[C@H](O)C3=C(C)[C@@H](OC(=O)[C@H](O)[C@@H](NC(=O)OC(C)(C)C)c4ccccc4)C[C@@](O)([C@@H](OC(=O)c4ccccc4)[C@H]21)C3(C)C [Docetaxel] | 0.68 | 0.66 | 0.84 | 0.79 | 1.06 | 0.57
CCOc1ccc(Cc2cc([C@@H]3O[C@H](CO)[C@@H](O)[C@H](O)[C@H]3O)ccc2Cl)cc1 [Dapagliflozin] | 0.96 | 1.43 | 1.31 | 1.27 | 1.36 | 1.28
Oc1c(Cl)cc(Cl)cc1Sc1cc(Cl)cc(Cl)c1O [Bithionol] | 0.65 | 0.49 | 0.8 | 0.48 | 0.68 | 0.45
C[C@H](CCC(=O)O)[C@H]1CC[C@H]2[C@@H]3[C@H](O)C[C@@H]4C[C@H](O)CC[C@]4(C)[C@H]3C[C@H](O)[C@]12C [Cholic acid] | 0.81 | 0.89 | 1.13 | 1 | 0.87 | 0.8
COc1cccc(CCc2ccccc2OCC(CN(C)C)OC(=O)CCC(=O)O)c1 (stereo not given) [Sarpogrelate hydrochloride] | 1.15 | 0.88 | 1.06 | 0.52 | 0.55 | 0.75
COc1cc2nccc(Oc3ccc(NC(=O)NC4CC4)c(Cl)c3)c2cc1C(N)=O [Lenvatinib (E7080)] | 1.11 | 0.86 | 1.61 | 1.27 | 1.21 | 1.53
[O-][n+]1cccc(CO)c1 [Mepiroxol] | 0.87 | 0.68 | 1.01 | 0.54 | 0.62 | 0.54
N=C(N)NC(=N)N1CCOCC1 [Moroxydine HCl] | 0.86 | 1.01 | 0.76 | 1.15 | 0.97 | 0.96
CCCC(=O)Nc1ncnc2c1ncn2[C@@H]1O[C@@H]2COP(=O)(O)O[C@H]2[C@H]1OC(=O)CCC [Dibutyryl-cAMP (Bucladesine)] | 0.83 | 0.73 | 0.78 | 0.77 | 1 | 0.98
C=CC[N+]1([C@H]2C[C@H]3[C@@H]4CC[C@H]5C[C@H](O)[C@@H](N6CCOCC6)C[C@]5(C)[C@H]4CC[C@]3(C)[C@H]2OC(C)=O)CCCC1 [Rocuronium Bromide] | 0.86 | 0.93 | 0.8 | 0.67 | 1.02 | 0.79
CO[C@@]12[C@H](COC(N)=O)C3=C(C(=O)C(C)=C(N)C3=O)N1C[C@@H]1N[C@@H]12 [Mitomycin C] | 1.04 | 0.8 | 0.91 | 0.91 | 0.93 | 0.79
CCCCCCNC(=O)n1cc(F)c(=O)[nH]c1=O [Carmofur] | 0.9 | 1.45 | 1.31 | 0.93 | 1.1 | 1.05
O=C(O)CCc1nc(-c2ccccc2)c(-c2ccccc2)o1 [Oxaprozin] | 1.1 | 1.04 | 1.23 | 0.92 | 0.88 | 0.67
CS(=O)(=O)c1ccc([C@@H](O)[C@@H](CO)NC(=O)C(Cl)Cl)cc1 [Thiamphenicol] | 1.11 | 1.31 | 1.17 | 0.78 | 1.23 | 1.14
CCOC(=O)[C@H](CCc1ccccc1)N[C@H]1CCc2ccccc2N(CC(=O)O)C1=O [Benazepril HCl] | 0.88 | 0.68 | 1.06 | 1.13 | 0.8 | 1.2
CC(=O)O[C@]1(C(C)=O)CC[C@H]2[C@@H]3C[C@H](C)C4=CC(=O)CC[C@]4(C)[C@H]3CC[C@@]21C [Medroxyprogesterone acetate] | 1.17 | 1.38 | 1.02 | 1.34 | 0.92 | 1.17
Nc1ccccc1NC(=O)c1ccc(CNC(=O)OCc2cccnc2)cc1 [Entinostat (MS-275)] | 0.75 | 0.63 | 0.65 | 0.79 | 0.95 | 0.84
CCN(CCCOc1ccc2c(Nc3cc(CC(=O)Nc4cccc(F)c4)[nH]n3)ncnc2c1)CCOP(=O)(O)O [Barasertib (AZD1152-HQPA)] | 1.05 | 1.04 | 1.37 | 0.65 | 0.89 | 0.93
NC(=O)c1nc(F)cnc1O [Favipiravir (T-705)] | 1.19 | 1.14 | 0.94 | 1.16 | 0.84 | 0.83

As entered above:
`Oc1c(Cl)cc(Cl)cc1Sc1cc(Cl)cc(Cl)c1O` [Bithionol] | growth (C. auris AR-387; 10 µM): 0.45
`CO[C@@]12[C@H](COC(N)=O)C3=C(C(=O)C(C)=C(N)C3=O)N1C[C@@H]1N[C@@H]12` [Mitomycin C] | growth (C. auris AR-386; 1 µM): 0.91

(listing goes on)

SMILES | growth (C. auris AR-384; 1 µM) | growth (C. auris AR-384; 10 µM) | growth (C. auris AR-386; 1 µM) | growth (C. auris AR-386; 10 µM) | growth (C. auris AR-387; 1 µM) | growth (C. auris AR-387; 10 µM)
CCCCS(=O)(=O)N[C@@H](Cc1ccc(OCCCCC2CCNCC2)cc1)C(=O)O [Tirofiban Hydrochloride] | 1.23 | 1.29 | 1.02 | 1.25 | 1.26 | 1.3
CC1=C(/C=C/C(C)=C/C=C/C(C)=C\C(=O)O)C(C)(C)CCC1 [Isotretinoin] | 0.82 | 1.48 | 1.19 | 1.28 | 0.85 | 1.2
CCc1cccc2c3c([nH]c12)C(CC)(CC(=O)O)OCC3 (stereo not given) [Etodolac] | 0.79 | 0.98 | 1.33 | 1.2 | 1.31 | 1.19
O=C(C[S+]([O-])Cc1ccco1)NC/C=C\COc1cc(CN2CCCCC2)ccn1 (stereo not given) [Lafutidine] | 1.05 | 1.01 | 0.86 | 0.98 | 0.91 | 0.62
CCOc1ccc(C[C@H]2NC(=O)CCSSC[C@@H](C(=O)N3CCC[C@H]3C(=O)N[C@@H](CCCN)C(=O)NCC(N)=O)NC(=O)[C@H](CC(N)=O)NC(=O)[C@H]([C@@H](C)O)NC(=O)[C@H]([C@@H](C)CC)NC2=O)cc1 [Atosiban Acetate] | 0.52 | 0.47 | 0.48 | 0.83 | 0.69 | 0.63
CC(C)(C)c1cc(NC(=O)Nc2ccc(-c3cn4c(n3)sc3cc(OCCN5CCOCC5)ccc34)cc2)no1 [Quizartinib (AC220)] | 0.99 | 0.73 | 0.84 | 0.54 | 0.75 | 0.78
CCc1c2c(nc3ccc(OC(=O)N4CCC(N5CCCCC5)CC4)cc13)-c1cc3c(c(=O)n1C2)COC(=O)[C@]3(O)CC [Irinotecan HCl Trihydrate] | 0.92 | 0.84 | 0.95 | 1.21 | 0.72 | 0.68
CC(C)(CO)C(O)C(=O)NCCCO (racemic) [DL-Panthenol] | 1.03 | 0.93 | 0.74 | 1.05 | 0.74 | 0.82
CCCCC(=O)N(Cc1ccc(-c2ccccc2-c2nnn[nH]2)cc1)[C@H](C(=O)O)C(C)C [Valsartan] | 1.1 | 0.88 | 0.91 | 0.97 | 0.65 | 0.56
O=C(Nc1nc2cccc(-c3ccc(CN4CCS(=O)(=O)CC4)cc3)n2n1)C1CC1 [Filgotinib (GLPG0634)] | 0.7 | 0.77 | 1.09 | 0.73 | 0.61 | 0.58
CN1CCN(C2=Nc3ccccc3Oc3ccc(Cl)cc32)CC1 [Loxapine Succinate] | 0.98 | 0.89 | 0.83 | 0.89 | 1.02 | 0.79
COc1cccc2c1C(=O)c1c(O)c3c(c(O)c1C2=O)C[C@@](O)(C(=O)CO)C[C@@H]3O[C@H]1C[C@H](N)[C@@H](O)[C@H](C)O1 [Epirubicin HCl] | 0.67 | 1.13 | 1.09 | 1.17 | 0.9 | 0.96
O=C1Cc2cc(CCN3CCN(c4nsc5ccccc45)CC3)c(Cl)cc2N1 [Ziprasidone HCl] | 0.71 | 0.46 | 0.61 | 0.59 | 0.85 | 0.83
C[N+]1(C)[C@@H]2CC[C@H]1C[C@@H](OC(=O)C(O)c1ccccc1)C2 (stereo not given in full) [Homatropine Methylbromide] | 1.26 | 0.87 | 0.81 | 0.84 | 1.02 | 0.88
COC(=O)N[C@H](C(=O)N1CCC[C@H]1c1ncc(-c2ccc(-c3ccc(-c4cnc([C@@H]5CCCN5C(=O)[C@@H](NC(=O)OC)C(C)C)[nH]4)cc3)cc2)[nH]1)C(C)C | 0.85 | 1.01 | 0.79 | 0.87 | 0.86 | 0.96
O=C(O)CCCc1ccccc1 [Sodium Phenylbutyrate] | 0.91 | 0.77 | 0.92 | 1.09 | 0.76 | 0.75
CNCCc1ccccn1 [Betahistine 2HCl] | 0.9 | 0.84 | 0.58 | 0.75 | 0.65 | 0.73
NNc1nncc2ccccc12 [Hydralazine HCl] | 1.23 | 1.38 | 1.19 | 1.19 | 1.07 | 1.18
C[N+](C)(CCOc1ccccc1)Cc1ccccc1.O=C([O-])c1cc2ccccc2cc1O [Bephenium Hydroxynaphthoate] | 0.89 | 0.81 | 0.88 | 1 | 1.01 | 1.07
CC(C)(O/N=C(\C(=O)N[C@@H]1C(=O)N2C(C(=O)[O-])=C(C[n+]3ccccc3)CS[C@H]12)c1csc(N)n1)C(=O)O [Ceftazidime] | 0.83 | 0.93 | 0.65 | 0.73 | 0.69 | 1.03
